From patent publication US20200255543A1 (ROCKEFELLER UNIVERSITY, published 2020) come the findings set out here.

Results are given in words; binding and its absence hold for the method and conditions named. Some binding calls cover weakened binding; strength is not graded here.

Assay [1] concerns the target T1, recombinant human MERTK (human, UniProt Q12866 21-505, limits assumed).
T1 construct: Analyte in solution in biolayer interferometry; also called hMer
T1 sequence: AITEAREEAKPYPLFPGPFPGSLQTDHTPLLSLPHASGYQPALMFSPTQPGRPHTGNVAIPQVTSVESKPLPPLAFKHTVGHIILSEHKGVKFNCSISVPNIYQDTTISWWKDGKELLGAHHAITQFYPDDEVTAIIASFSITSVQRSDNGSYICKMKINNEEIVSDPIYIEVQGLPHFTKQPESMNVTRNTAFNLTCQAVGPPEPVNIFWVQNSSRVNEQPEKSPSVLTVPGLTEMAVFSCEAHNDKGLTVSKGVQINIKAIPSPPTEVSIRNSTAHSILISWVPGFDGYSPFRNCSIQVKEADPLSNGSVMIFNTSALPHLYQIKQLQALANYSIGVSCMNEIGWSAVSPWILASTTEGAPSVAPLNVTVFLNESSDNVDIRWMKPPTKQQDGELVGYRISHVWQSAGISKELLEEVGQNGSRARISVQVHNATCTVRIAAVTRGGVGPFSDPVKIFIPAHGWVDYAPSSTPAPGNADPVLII
As to the kind of experiment: biolayer interferometry. For orientation: BLI is a label-free optical method that tracks binding on a fibre tip over time.

The target in assay [2] is T2, recombinant mouse MERTK (mouse, UniProt Q60805 23-496, limits assumed).
T2 construct: Analyte in solution in biolayer interferometry; also called msMer; murine MERTK
T2 sequence (looked up): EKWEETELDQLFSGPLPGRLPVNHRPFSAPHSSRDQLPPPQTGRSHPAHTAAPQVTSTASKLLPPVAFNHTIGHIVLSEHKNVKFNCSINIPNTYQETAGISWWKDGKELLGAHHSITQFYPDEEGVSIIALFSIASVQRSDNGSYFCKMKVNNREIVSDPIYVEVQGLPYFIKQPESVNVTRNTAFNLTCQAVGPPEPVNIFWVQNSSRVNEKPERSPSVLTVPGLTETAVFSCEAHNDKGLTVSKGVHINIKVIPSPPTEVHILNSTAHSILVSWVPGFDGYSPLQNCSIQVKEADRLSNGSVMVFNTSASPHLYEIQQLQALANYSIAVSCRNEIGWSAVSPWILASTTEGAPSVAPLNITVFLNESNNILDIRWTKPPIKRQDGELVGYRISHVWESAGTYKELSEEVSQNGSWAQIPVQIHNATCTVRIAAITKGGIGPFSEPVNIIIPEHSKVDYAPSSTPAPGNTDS
Nature of the assay: biolayer interferometry.

B1: monoclonal antibody M6 (antibody, V domains shown)
VH: QVKLEESGPELKKPGETVKISCKASGYTFTNYGMNWVKQAPGKGLKWMGWINTYTGEPTYADDFKGRFVFSLETSASTAYLQINNLKNEDMATYFCARKSTVVSRYFDVWGAGTTVTVSS
VL: DIVLTQTHKFMSTSVGDRVSITCKASQDVGDAVTWCQQKPGQPPKLLIYWASTRHTGVPDRFTGSGSGTDFTLTINNVQSEDLADYFCQQYRSYPLTFGAGTKLELKR
notes: Mouse hybridoma monoclonal antibody; Hybridoma supernatant was used in the ELISA screen, purified antibody in biolayer interferometry; also called Mer-M6
Turning to B1, the binding result in assay [1] is “binds”.

B2: monoclonal antibody M19 (antibody, V domains shown)
VH: EVQLEESGPDLKKPGETVKISCKASNYTFTDYSMHWVKQAPGKGLKWVGWINTDTGEPTYADDFKGRFAFSLETSASTAYLQINNLKNEDTATYFCARWFGAMDYWGQGTSVTVSS
VL: DIVITQSHKFMSTSVGDRVSITCKASQDVTNVVAWYQQKPGQSPKLLIYSASYRYTGVPDRFTGSGSGTDFTFTISSVQAEDLAVYYCQQYYRTPRTFGGGTKLEIKR
notes: Mouse hybridoma monoclonal antibody; Hybridoma supernatant was used in the ELISA screen, purified antibody in biolayer interferometry; also called Mer-M19
On to B2, for which the binding entry in assay [1] and in assay [2] was “binds” in each case.
